Test results reported in patent US20100081799A1 (priority 2006, published 2010).

Assay: general procedure: Fmoc solid-phase peptide synthesis; TCP-resin

| Substance | final HPLC purity (whole synthesis, RP-HPLC) | conjugation yield (conjugation step) | crude HPLC purity (conjugation step, RP-HPLC) | final HPLC purity (conjugation step, RP-HPLC) |
| --- | --- | --- | --- | --- |
| 3-(3-Azidopropylcarbamoyl)propanoyl-Tyr-Glu-Trp-Lys | 97% purity | – | – | – |
| DOTA-Tyr-Glu-Trp-Lys derivative 26 | – | 51% | 76% purity | 95% purity |
| cyclo[2,7]-3-(3-azidopropylcarbamoyl)propanoyl-D-Phe-Cys-Tyr-D-Trp-Lys-Thr-Cys-Thr-OH | 96% purity | – | – | – |
| cyclo[2,7]-AoxAc-D-Phe-Cys-Tyr-D-Trp-Lys-Thr-Cys-Thr-OH | 97% purity | – | – | – |
